{"source": "PubChem BioAssay AID1224830 (NIAID, 2016)", "purpose": "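Regulators of TLR4 signalling towards TNF-alpha in macrophage-like cells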 (primary screen)", "system": "human THP-1 monocytic leukaemia cells, TNF dual-luciferase reporter clone, PMA-differentiated to macrophage-like cells", "reagents": "siRNA pool against human genes, 50 nM", "time to read-out": "LPS for 4 h, given about 3 days after siRNA transfection", "conditions": "bacterial LPS (TLR4 ligand), 10 ng/ml", "measurement": "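TNF firefly reporter luminescence divided by renilla, normalised to the plate median, then turned into a robust z-score for each replicate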", "direction": "TNF reporter robust z-score: higher = stronger TNF reporter response to LPS", "call rule": "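Each well counts as active if its z-score is over 2.8 or under -1.5; controls are left without a call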", "note": "The whole screen tested about 18,000 reagents; shown is an unselected part. Of all reagents, about 2,900 (16%) were called active. 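Calls are made per well; low scores hint the gene aids the LPS response, high scores that it dampens it.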 Entries without a mark were called inactive. Repeated entries: four replicate wells of each siRNA pool."}
{"Gene": "STIMATE", "TNF reporter robust z-score": "4.06 (active)"}
{"Gene": "STIMATE", "TNF reporter robust z-score": "14.1 (active)"}
{"Gene": "STIMATE", "TNF reporter robust z-score": 1.31}
{"Gene": "STIMATE", "TNF reporter robust z-score": 0.66}
{"Gene": "TMEM256", "TNF reporter robust z-score": -0.45}
{"Gene": "TMEM256", "TNF reporter robust z-score": -0.97}
{"Gene": "TMEM256", "TNF reporter robust z-score": -1.01}
{"Gene": "TMEM256", "TNF reporter robust z-score": -0.84}
{"Gene": "KPNA1", "TNF reporter robust z-score": 0.43}
{"Gene": "KPNA1", "TNF reporter robust z-score": 1.32}
{"Gene": "KPNA1", "TNF reporter robust z-score": 0.1}
{"Gene": "KPNA1", "TNF reporter robust z-score": 2}
{"Gene": "USP27X", "TNF reporter robust z-score": -0.13}
{"Gene": "USP27X", "TNF reporter robust z-score": 0.17}
{"Gene": "USP27X", "TNF reporter robust z-score": 0.43}
{"Gene": "USP27X", "TNF reporter robust z-score": 0.9}
{"Gene": "H1-6", "TNF reporter robust z-score": 1.07}
{"Gene": "H1-6", "TNF reporter robust z-score": 0.49}
{"Gene": "H1-6", "TNF reporter robust z-score": 1.03}
{"Gene": "H1-6", "TNF reporter robust z-score": 1.06}
{"Gene": "ZNF718", "TNF reporter robust z-score": 1.75}
{"Gene": "ZNF718", "TNF reporter robust z-score": 2.39}
{"Gene": "ZNF718", "TNF reporter robust z-score": 0.53}
{"Gene": "ZNF718", "TNF reporter robust z-score": 2.67}
{"Gene": "SLC38A1", "TNF reporter robust z-score": "-1.59 (active)"}
{"Gene": "SLC38A1", "TNF reporter robust z-score": -0.72}
{"Gene": "SLC38A1", "TNF reporter robust z-score": -1.15}
{"Gene": "SLC38A1", "TNF reporter robust z-score": -1.45}
{"Gene": "NTNG1", "TNF reporter robust z-score": 2.72}
{"Gene": "NTNG1", "TNF reporter robust z-score": "3.09 (active)"}
{"Gene": "NTNG1", "TNF reporter robust z-score": 0.21}
{"Gene": "NTNG1", "TNF reporter robust z-score": 0.53}

Sorted by “TNF reporter robust z-score” (low to high): 10 of the entries above
{"Gene": "SLC38A1", "TNF reporter robust z-score": "-1.59 (active)"}
{"Gene": "SLC38A1", "TNF reporter robust z-score": -1.45}
{"Gene": "SLC38A1", "TNF reporter robust z-score": -1.15}
{"Gene": "SLC38A1", "TNF reporter robust z-score": -0.72}
{"Gene": "ZNF718", "TNF reporter robust z-score": 0.53}
{"Gene": "H1-6", "TNF reporter robust z-score": 1.03}
{"Gene": "H1-6", "TNF reporter robust z-score": 1.06}
{"Gene": "ZNF718", "TNF reporter robust z-score": 1.75}
{"Gene": "ZNF718", "TNF reporter robust z-score": 2.39}
{"Gene": "ZNF718", "TNF reporter robust z-score": 2.67}

The listing continues:
{"Gene": "DYNLT2B", "TNF reporter robust z-score": -0.5}
{"Gene": "DYNLT2B", "TNF reporter robust z-score": -0.54}
{"Gene": "DYNLT2B", "TNF reporter robust z-score": -0.14}
{"Gene": "DYNLT2B", "TNF reporter robust z-score": 0.27}
{"Gene": "CDC26", "TNF reporter robust z-score": -0.16}
{"Gene": "CDC26", "TNF reporter robust z-score": 1.15}
{"Gene": "CDC26", "TNF reporter robust z-score": 0.68}
{"Gene": "CERS2", "TNF reporter robust z-score": 0.38}
{"Gene": "CERS2", "TNF reporter robust z-score": 0.16}
{"Gene": "CERS2", "TNF reporter robust z-score": 0.31}
{"Gene": "CERS2", "TNF reporter robust z-score": 0.52}
{"Gene": "MTMR4", "TNF reporter robust z-score": -0.55}
{"Gene": "MTMR4", "TNF reporter robust z-score": -1.08}
{"Gene": "MTMR4", "TNF reporter robust z-score": -0.6}
{"Gene": "CCDC78", "TNF reporter robust z-score": "-1.75 (active)"}
{"Gene": "CCDC78", "TNF reporter robust z-score": "-1.96 (active)"}
{"Gene": "CCDC78", "TNF reporter robust z-score": "-1.94 (active)"}
{"Gene": "CCDC78", "TNF reporter robust z-score": "-1.54 (active)"}
{"Gene": "CIMIP7", "TNF reporter robust z-score": 0.76}
{"Gene": "CIMIP7", "TNF reporter robust z-score": 0.65}
{"Gene": "CIMIP7", "TNF reporter robust z-score": -0.24}
{"Gene": "CIMIP7", "TNF reporter robust z-score": 0.54}
{"Gene": "GATAD2B", "TNF reporter robust z-score": 1.48}
{"Gene": "GATAD2B", "TNF reporter robust z-score": 1.7}
{"Gene": "GATAD2B", "TNF reporter robust z-score": 1.51}
{"Gene": "GATAD2B", "TNF reporter robust z-score": 2.26}
{"Gene": "HIVEP3", "TNF reporter robust z-score": -1.49}
{"Gene": "HIVEP3", "TNF reporter robust z-score": -1.39}
{"Gene": "HIVEP3", "TNF reporter robust z-score": "-1.74 (active)"}
